Shown are results outside the selection of targets with a hit, which stands elsewhere. The data scatter; read single values as rough. The entries are a selection whose mix differs from that of the whole data set.
Compound: COC(=O)/C=C/c1ccccc1 [methyl cinnamate]
Assay: log2 ratio of iodoacetamide-alkyne labeling of the cysteine site, DMSO over compound (competition); higher = stronger covalent engagement of the cysteine by the compound, active = 1 or more
Conditions: 500 µM; treatment time 1 h; system: HEK293T cell lysate
Procedure, shortened: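 Three replicates, each with duplicate channels, were prepared from HEK293T lysate (2 mg/mL) treated with vehicle or electrophile at 500 µM for 1 h at ambient temperature. Iodoacetamide alkyne was then applied for 1 h, and samples were clicked to sCIP-TMT reagents, pooled, trypsin-digested overnight at 37 °C, enriched on streptavidin, acid-eluted and analysed on Orbitrap Eclipse LC-MS/MS with FAIMS, with FragPipe quantification. The log2 competition ratio per cysteine is the mean control-channel divided by the mean compound-channel reporter intensity. Cysteines quantified in only one replicate were left out.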

By UniProt entry, the sequences of proteins in these tests, tags left out. Where a name states a change or a piece, a line headed by the entry shows the natural chain unless it says otherwise.
UniProt Q15003, whole entry, looked up: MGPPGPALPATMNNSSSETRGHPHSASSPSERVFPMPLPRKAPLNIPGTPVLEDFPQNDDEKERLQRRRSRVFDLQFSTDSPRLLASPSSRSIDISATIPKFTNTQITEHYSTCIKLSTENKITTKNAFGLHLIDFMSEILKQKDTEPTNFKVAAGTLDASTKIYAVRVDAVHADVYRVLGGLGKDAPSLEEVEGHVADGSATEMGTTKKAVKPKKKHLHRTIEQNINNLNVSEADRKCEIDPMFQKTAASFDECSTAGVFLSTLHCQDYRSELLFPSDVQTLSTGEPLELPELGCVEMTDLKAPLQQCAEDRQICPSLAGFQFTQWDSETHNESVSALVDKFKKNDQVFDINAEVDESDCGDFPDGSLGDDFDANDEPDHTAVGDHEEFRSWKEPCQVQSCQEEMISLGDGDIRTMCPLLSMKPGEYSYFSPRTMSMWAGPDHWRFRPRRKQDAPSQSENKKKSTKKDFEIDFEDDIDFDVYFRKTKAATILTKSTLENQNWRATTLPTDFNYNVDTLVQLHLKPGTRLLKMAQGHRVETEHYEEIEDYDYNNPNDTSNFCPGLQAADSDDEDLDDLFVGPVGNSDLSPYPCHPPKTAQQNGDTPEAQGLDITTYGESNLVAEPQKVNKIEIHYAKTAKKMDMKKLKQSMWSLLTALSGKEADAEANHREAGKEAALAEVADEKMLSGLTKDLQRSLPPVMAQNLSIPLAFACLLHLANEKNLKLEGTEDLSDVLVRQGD
UniProt Q13838, whole entry, looked up: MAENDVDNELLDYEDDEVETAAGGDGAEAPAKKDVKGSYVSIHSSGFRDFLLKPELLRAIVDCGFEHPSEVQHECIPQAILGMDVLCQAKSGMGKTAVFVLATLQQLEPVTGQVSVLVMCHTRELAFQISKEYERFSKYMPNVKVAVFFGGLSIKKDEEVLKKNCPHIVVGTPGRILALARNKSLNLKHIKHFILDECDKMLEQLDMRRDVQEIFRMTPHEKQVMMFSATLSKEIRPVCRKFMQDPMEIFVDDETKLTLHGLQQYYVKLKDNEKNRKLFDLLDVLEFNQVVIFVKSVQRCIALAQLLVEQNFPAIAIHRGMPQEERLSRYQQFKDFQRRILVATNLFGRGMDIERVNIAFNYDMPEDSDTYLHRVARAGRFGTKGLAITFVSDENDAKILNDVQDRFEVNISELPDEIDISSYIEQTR
UniProt Q13555: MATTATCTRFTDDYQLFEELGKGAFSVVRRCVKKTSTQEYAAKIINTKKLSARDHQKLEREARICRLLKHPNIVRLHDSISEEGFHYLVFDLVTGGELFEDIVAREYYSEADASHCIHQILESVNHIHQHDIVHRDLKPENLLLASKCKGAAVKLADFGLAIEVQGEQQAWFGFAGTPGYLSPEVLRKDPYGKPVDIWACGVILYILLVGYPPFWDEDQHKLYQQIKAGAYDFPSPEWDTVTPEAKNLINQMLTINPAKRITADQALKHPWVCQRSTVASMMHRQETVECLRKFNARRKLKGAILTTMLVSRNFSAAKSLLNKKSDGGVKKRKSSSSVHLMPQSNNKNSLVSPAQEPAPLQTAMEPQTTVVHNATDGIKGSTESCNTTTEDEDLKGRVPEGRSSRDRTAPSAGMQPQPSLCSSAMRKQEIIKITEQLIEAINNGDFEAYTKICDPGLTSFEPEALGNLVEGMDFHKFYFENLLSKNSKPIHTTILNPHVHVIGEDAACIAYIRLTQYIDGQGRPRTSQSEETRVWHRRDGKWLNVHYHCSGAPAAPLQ
UniProt Q13885, whole entry, looked up: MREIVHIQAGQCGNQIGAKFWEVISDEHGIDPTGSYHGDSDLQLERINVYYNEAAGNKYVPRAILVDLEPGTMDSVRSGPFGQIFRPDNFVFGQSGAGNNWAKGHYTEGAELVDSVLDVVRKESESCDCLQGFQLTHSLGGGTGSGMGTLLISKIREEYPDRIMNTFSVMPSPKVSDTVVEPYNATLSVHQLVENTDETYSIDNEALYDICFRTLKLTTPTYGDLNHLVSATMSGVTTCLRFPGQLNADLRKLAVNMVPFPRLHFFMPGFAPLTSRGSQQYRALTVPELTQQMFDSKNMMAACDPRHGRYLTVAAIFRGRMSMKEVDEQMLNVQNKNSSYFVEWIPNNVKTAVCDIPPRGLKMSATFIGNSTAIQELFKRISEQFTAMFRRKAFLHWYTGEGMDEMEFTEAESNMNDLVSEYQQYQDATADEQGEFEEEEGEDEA
UniProt Q14493, whole entry, looked up: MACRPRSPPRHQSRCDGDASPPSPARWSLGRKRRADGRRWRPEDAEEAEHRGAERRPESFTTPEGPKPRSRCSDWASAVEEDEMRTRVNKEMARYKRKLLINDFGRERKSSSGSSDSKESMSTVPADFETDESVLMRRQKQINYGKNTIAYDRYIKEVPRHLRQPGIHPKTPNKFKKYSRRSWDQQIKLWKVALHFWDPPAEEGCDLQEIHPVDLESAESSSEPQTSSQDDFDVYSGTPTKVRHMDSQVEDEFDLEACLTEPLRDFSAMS
UniProt Q13642: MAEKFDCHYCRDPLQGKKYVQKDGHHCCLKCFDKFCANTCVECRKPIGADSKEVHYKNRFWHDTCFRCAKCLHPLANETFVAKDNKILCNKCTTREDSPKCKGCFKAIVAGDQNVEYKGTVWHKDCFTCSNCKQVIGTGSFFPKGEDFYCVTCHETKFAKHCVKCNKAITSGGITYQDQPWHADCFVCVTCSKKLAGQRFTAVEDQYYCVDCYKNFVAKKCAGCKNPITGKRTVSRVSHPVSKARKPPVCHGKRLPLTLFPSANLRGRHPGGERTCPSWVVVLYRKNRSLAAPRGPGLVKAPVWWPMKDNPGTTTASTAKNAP
UniProt Q14008: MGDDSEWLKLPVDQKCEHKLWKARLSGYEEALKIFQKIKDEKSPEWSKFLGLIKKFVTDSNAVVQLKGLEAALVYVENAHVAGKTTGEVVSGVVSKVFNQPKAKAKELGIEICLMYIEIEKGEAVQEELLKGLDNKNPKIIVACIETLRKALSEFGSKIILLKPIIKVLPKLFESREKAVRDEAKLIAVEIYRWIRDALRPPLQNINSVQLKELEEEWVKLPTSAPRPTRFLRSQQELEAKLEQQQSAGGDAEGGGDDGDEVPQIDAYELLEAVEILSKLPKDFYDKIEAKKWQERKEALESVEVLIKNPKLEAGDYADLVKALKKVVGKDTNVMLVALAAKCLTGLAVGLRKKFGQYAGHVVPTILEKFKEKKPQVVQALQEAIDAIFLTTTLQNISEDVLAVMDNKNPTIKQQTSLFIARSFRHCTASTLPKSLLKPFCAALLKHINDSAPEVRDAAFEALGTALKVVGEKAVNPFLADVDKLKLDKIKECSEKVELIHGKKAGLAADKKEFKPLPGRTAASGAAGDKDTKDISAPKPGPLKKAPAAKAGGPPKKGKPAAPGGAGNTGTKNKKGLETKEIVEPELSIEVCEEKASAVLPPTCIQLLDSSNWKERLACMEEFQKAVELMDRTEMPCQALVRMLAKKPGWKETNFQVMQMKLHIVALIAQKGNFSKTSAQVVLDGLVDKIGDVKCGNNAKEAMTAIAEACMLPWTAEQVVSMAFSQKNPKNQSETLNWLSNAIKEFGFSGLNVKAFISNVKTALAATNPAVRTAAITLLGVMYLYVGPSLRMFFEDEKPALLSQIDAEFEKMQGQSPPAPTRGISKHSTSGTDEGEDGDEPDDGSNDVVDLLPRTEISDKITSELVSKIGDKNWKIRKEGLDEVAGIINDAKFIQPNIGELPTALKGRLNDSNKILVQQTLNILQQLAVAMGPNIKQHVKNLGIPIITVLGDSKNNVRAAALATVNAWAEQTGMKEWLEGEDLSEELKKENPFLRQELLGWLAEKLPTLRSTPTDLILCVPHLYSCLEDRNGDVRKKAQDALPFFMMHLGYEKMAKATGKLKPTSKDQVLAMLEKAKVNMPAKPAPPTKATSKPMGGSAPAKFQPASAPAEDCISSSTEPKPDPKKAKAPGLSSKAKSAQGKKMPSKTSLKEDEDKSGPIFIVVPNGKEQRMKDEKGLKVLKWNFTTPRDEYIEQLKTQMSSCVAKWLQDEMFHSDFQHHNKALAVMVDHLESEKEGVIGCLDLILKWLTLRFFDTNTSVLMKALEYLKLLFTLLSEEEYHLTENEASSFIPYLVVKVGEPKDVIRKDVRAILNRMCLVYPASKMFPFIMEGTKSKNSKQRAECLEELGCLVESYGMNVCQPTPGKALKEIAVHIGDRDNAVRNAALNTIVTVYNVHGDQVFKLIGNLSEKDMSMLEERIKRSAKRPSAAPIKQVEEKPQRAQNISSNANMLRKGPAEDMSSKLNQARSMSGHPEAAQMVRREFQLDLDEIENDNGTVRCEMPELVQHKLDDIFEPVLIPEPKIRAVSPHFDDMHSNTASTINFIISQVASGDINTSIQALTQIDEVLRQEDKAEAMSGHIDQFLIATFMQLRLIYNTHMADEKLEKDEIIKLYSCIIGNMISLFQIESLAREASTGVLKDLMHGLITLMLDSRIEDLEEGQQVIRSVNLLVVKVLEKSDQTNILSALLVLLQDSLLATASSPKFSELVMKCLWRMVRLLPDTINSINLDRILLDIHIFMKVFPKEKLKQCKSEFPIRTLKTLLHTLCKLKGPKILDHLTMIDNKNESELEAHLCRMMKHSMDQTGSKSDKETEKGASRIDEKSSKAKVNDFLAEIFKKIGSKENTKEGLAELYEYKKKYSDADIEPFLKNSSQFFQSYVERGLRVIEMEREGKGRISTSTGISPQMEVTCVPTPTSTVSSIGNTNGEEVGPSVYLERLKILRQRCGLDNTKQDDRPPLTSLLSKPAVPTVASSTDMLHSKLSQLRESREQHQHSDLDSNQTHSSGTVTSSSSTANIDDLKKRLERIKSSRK
UniProt Q13541: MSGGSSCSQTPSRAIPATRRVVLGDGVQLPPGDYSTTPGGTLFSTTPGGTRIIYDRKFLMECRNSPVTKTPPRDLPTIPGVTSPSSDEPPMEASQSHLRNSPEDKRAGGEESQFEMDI
UniProt Q14974, whole entry, looked up: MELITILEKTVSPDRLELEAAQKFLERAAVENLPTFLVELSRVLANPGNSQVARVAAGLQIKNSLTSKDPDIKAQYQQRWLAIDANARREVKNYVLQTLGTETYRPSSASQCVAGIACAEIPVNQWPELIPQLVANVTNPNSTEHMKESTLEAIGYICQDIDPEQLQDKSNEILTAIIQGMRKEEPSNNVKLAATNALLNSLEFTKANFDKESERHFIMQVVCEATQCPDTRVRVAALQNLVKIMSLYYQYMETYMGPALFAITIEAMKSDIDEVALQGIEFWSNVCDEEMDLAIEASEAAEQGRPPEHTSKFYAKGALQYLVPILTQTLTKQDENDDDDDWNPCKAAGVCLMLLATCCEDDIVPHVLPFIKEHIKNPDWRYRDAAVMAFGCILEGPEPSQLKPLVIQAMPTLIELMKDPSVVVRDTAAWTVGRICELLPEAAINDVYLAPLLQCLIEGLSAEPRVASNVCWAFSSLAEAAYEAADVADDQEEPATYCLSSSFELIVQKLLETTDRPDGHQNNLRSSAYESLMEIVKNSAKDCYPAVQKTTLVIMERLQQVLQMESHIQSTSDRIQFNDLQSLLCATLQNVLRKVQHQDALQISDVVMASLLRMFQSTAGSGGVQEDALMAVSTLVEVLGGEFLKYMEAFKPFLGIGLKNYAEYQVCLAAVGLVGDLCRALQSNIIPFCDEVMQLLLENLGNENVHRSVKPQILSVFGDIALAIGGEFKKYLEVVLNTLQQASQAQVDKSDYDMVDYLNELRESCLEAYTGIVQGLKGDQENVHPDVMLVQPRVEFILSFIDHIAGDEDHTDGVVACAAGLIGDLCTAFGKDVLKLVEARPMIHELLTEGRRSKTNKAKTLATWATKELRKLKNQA
UniProt Q13509, whole entry, looked up: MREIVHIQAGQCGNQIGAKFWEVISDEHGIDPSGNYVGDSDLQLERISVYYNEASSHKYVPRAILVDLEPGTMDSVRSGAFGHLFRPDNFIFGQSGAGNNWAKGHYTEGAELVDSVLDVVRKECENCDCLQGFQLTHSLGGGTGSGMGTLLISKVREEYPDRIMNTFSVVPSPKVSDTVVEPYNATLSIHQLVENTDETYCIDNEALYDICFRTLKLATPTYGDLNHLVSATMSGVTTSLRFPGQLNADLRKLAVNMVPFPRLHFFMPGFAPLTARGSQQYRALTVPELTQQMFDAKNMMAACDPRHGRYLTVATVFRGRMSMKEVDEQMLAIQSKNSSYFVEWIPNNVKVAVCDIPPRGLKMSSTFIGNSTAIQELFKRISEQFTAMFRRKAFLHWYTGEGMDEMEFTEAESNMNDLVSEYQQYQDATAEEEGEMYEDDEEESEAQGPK

log2 ratio of iodoacetamide-alkyne labeling, inactive:
SQSTM1 C331 (UniProt Q13501) 0.27, CBX2 C222 (UniProt Q14781) 0.0771, UniProt Q14241_C339 0.118, NCAPH C397 (UniProt Q15003) 0.237, DDX39B C300 (UniProt Q13838) -0.358, CASP8 C360 (UniProt Q14790) 0.195, CAMK2G C7 (UniProt Q13555) 0.306, GAPVD1 C568 (UniProt Q14C86) 0.202, SQSTM1 C290 (UniProt Q13501) 0.524, UniProt Q13885_C211 0.371, SQSTM1 C26 (UniProt Q13501) 0.151, SMC1A C781 (UniProt Q14683) 0.134, SLBP C72 (UniProt Q14493) 0.257, UniProt Q14004_C1017 0.242, SLBP C15 (UniProt Q14493) 0.162, USP10 C209 (UniProt Q14694) -0.543, FHL1 C10 (UniProt Q13642) -0.044, CKAP5 C1026 (UniProt Q14008) 0.0818, EIF4EBP1 C7 (UniProt Q13541) 0.505, CBX2 C340 (UniProt Q14781) 0.143, KPNB1 C585 (UniProt Q14974) -0.09, TUBB3 C303 (UniProt Q13509) -0.0439
